In publication PMC8748658:
No constants are given. Whether binding was seen depends on the method and setting. A result given as binding can be weak or reduced; the word gives no strength. Sequences can lack the tags named with a protein. For some assays here: Binding seen in cells or lysates may run through a third protein.

B1: Top1-HA (enzyme, UniProt Q04750 1-767)
chain: MSGDHLHNDSQIEADFRLNDSHKHKDKHKDREHRHKEHKKDKDKDREKSKHSNSEHKDSEKKHKEKEKTKHKDGSSEKHKDKHKDRDKERRKEEKIRAAGDAKIKKEKENGFSSPPRIKDEPEDDGYFAPPKEDIKPLKRLRDEDDADYKPKKIKTEDIKKEKKRKSEEEEDGKLKKPKNKDKDKKVAEPDNKKKKPKKEEEQKWKWWEEERYPEGIKWKFLEHKGPVFAPPYEPLPESVKFYYDGKVMKLSPKAEEVATFFAKMLDHEYTTKEIFRKNFFKDWRKEMTNDEKNTITNLSKCDFTQMSQYFKAQSEARKQMSKEEKLKIKEENEKLLKEYGFCVMDNHRERIANFKIEPPGLFRGRGNHPKMGMLKRRIMPEDIIINCSKDAKVPSPPPGHKWKEVRHDNKVTWLVSWTENIQGSIKYIMLNPSSRIKGEKDWQKYETARRLKKCVDKIRNQYREDWKSKEMKVRQRAVALYFIDKLALRAGNEKEEGETADTVGCCSLRVEHINLHPELDGQEYVVEFDFPGKDSIRYYNKVPVEKRVFKNLQLFMENKQPEDDLFDRLNTGILNKHLQDLMEGLTAKVFRTYNASITLQQQLKELTAPDENVPAKILSYNRANRAVAILCNHQRAPPKTFEKSMMNLQSKIDAKKDQLADARRDLKSAKADAKVMKDAKTKKVVESKKKAVQRLEEQLMKLEVQATDREENKQIALGTSKLNYLDPRITVAWCKKWGVPIEKIYNKTQREKFAWAIDMTDEDYEF
B2: Top1-HA (AAV-Top1-HA) (enzyme, UniProt Q04750 1-767)
chain: B1 chain

How the values were obtained:
[1] = target: L1-70-Myc; test: ELISA; purified L1-70-Myc coated in PBS on 96-well plates; purified Top1-HA at 0.1, 0.5, 1, 5 and 10 nM, 2 h at 37 °C; detection with rabbit anti-HA, TMB; both purified
[2] = target: L1-70-Myc (AAV-L1-70-Myc); test: proximity ligation; Duolink with antibodies against Myc and HA on cells transduced with AAV-L1-70-Myc and AAV-Top1-HA (U87 cells by the legend, cultured hippocampal cells by the text); cells with one virus only as controls

| Binder | binding [1] | binding [2] |
| --- | --- | --- |
| B1 | binds |  |
| B2 |  | binds |
